# About 1,400 (61%) of roughly 2,300 compounds were called active. So high a share suggests a set chosen from earlier hits. The shares of active, inactive and inconclusive entries below differ from those in the screen. The call rests on the fitted dose curve; in most records, active means well fitted inhibition curve with a large enough effect; inconclusive means small, poorly fitted or top-dose-only effect, or effect the other way; inactive means no such curve, though single readings can be large or run the other way. Potencies of inconclusive entries are doubtful fits and often do not repeat.
# Test: Confirmation screen for delayed death inhibitors of the malarial parasite plastid, 96 hour incubation; further: nearly all actives have a fitted effect of over 60% in size
# Settings: P. falciparum luciferase growth in erythrocytes; series mostly up to 28.7 µM
# In short: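 Two-generation (96 h, 37 C) exposure of P. falciparum carrying an integrated firefly luciferase reporter in erythrocytes, 0.1% parasitemia and 2% hematocrit final, Albumax-supplemented RPMI. Luminescence decrease measures growth inhibition.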
# Potency means the concentration at half of the fitted maximal effect.
row,Compound,Potency
1,Cc1cc2[nH]c(=O)c(=O)[nH]c2cc1S(=O)(=O)NC1CCCCC1C (stereo not given),"inconclusive: 15.8 µM [inhibitor, partial curve, poor fit]"
2,O=C(COc1ccc(Br)cc1)Nc1cc(S(=O)(=O)N2CCCCC2)ccc1N1CCCCC1,active: 3.98 µM
3,Cc1cc(C(=O)Cn2nnc3ccccc3c2=O)c(C)n1-c1ccccc1F,"inconclusive: 1.41 µM [activator, full curve, poor fit]"
4,C=CCNC(=O)c1onc(CSc2cccc(Cl)c2)c1C(=O)O,inactive
5,CC(=O)NC[C@@H]1CN(c2ccc(N3CCOCC3)c(F)c2)C(=O)O1,"inconclusive: 17.8 µM [inhibitor, single point]"
6,COc1cc2cc[n+](Cc3ccc([N+](=O)[O-])cc3)cc2cc1OC,"inconclusive: 0.708 µM [inhibitor, full curve, poor fit]"
7,CCS(=O)(=O)N1Cc2ccccc2CC1C(=O)Nc1cccc(OC)c1 (stereo not given),inactive
8,CNc1ccc(Br)cc(C(=O)/C=C/c2cc(OC)ccc2OC)c1=O,"inconclusive: 12.6 µM [inhibitor, partial curve, poor fit]"
9,O=C(C1CCC1)N1CCc2cc(S(=O)(=O)NCc3ccco3)ccc21,inactive
10,Cc1ccc(CNC(=O)COc2ccccc2-c2ccccc2)cc1,active: 11.2 µM
11,CCCCNC(=O)c1onc(CSc2cccc3ccccc23)c1C(=O)O,inactive
12,CC(=O)/C(C#N)=C1\NC(=O)C(Cc2ccccc2C)S1 (stereo not given),"inconclusive: 3.98 µM [inhibitor, partial curve, poor fit]"
13,COc1ccc(NC(=O)CN(c2ccc(F)cc2)S(=O)(=O)c2ccccc2)c(OC)c1,"inconclusive: 0.501 µM [inhibitor, full curve, poor fit]"
14,COc1cccc(CN(C(=O)c2ccccc2Br)C2CCS(=O)(=O)C2)c1 (stereo not given),"inconclusive: 12.6 µM [inhibitor, partial curve, poor fit]"
15,Cn1c2ccccc2c(=O)c2ccc(C#Cc3ccc(N)cc3)cc21,active: 11.2 µM
16,Cc1ccc2c(c1)Sc1c(ccc3ccccc13)N2,"inconclusive: 5.01 µM [activator, single point]"
17,COc1cccc(C(=O)N/N=C(\C)CC(=O)Nc2ccc(N(C)C)cc2)c1,"inconclusive: 22.4 µM [inhibitor, single point]"
18,O=C(NNc1ccnc2cc(Cl)ccc12)C1CCCCC1,active: 0.282 µM
19,COc1ccc(-c2csc(N3CCN(C(=O)c4ccco4)CC3)n2)cc1,active: 12.6 µM
20,COC(=O)CC1C(=O)NCCN1C(=S)Nc1ccc(F)cc1 (stereo not given),"inconclusive: 14.1 µM [inhibitor, partial curve, poor fit]"
21,O=C(NNc1nc(-c2ccccc2)cs1)c1ccco1,"inconclusive: 1.41 µM [inhibitor, full curve, poor fit]"
22,O=C(c1ccc(Cl)cc1)C(Cn1cncn1)C(Sc1ccccc1)c1ccccc1 (stereo not given),active: 12.6 µM
23,O=C(c1cccc(COc2cccc3ccccc23)c1)N1CCCC1,"inconclusive: 3.98 µM [activator, full curve]"
24,Cn1c(=O)n(Cc2ccccc2)c(=O)c2c1nc1n2CCN1Cc1ccco1,active: 7.94 µM
25,Cn1c(=O)n(C)c2cc(NC(=O)CCl)ccc21,active: 2 µM

# Pulled by structure from above (four):
row,Compound,Potency
1,Cc1cc2[nH]c(=O)c(=O)[nH]c2cc1S(=O)(=O)NC1CCCCC1C (stereo not given),"inconclusive: 15.8 µM [inhibitor, partial curve, poor fit]"
12,CC(=O)/C(C#N)=C1\NC(=O)C(Cc2ccccc2C)S1 (stereo not given),"inconclusive: 3.98 µM [inhibitor, partial curve, poor fit]"
19,COc1ccc(-c2csc(N3CCN(C(=O)c4ccco4)CC3)n2)cc1,active: 12.6 µM
13,COc1ccc(NC(=O)CN(c2ccc(F)cc2)S(=O)(=O)c2ccccc2)c(OC)c1,"inconclusive: 0.501 µM [inhibitor, full curve, poor fit]"

# Further entries follow:

row,Compound,Potency
1,CCCCNC(=O)c1ccc(CS(=O)(=O)c2cccc(C(F)(F)F)c2)o1,inactive
2,CN(C)CCn1c(=O)n(Cc2ccco2)c(=O)c2c3c(sc21)CCCCC3,active: 10 µM
3,O=C(COC(=O)c1ccc(O)cc1O)Nc1ccc2ccccc2c1,inactive
4,O=C1C2CCCN2C(c2ccccc2)N1c1nccs1 (stereo not given),"inconclusive: 0.501 µM [inhibitor, full curve, poor fit]"
5,Brc1ccccc1-c1nnc(COc2ncnc3c2cnn3-c2ccccc2)o1,inactive
6,CN(c1ccccc1)S(=O)(=O)c1ccc(-c2ccccc2)cc1,"inconclusive: 15.8 µM [inhibitor, single point]"
7,O=C(NCc1ccccc1)C(c1cccnc1)N(C(=O)c1ccccn1)c1ccccc1F (stereo not given),inactive
8,O=C(CSCc1cc(=O)n2nc(C3CC3)sc2n1)Nc1ccc(F)cc1,"inconclusive: 7.08 µM [inhibitor, full curve, poor fit]"
9,NC(=O)COc1ccc(C(=O)/C=C2/C(=O)Nc3ccccc32)cc1,inactive
10,O=C(NCc1cccnc1)c1ccc(NS(=O)(=O)c2ccccc2)cc1,active: 7.08 µM
11,Nc1ccc(-c2c3ccc(=O)cc-3oc3cc(O)ccc23)c(C(=O)O)c1,"inconclusive: 0.355 µM [activator, full curve, poor fit]"
12,Cc1ccc(-c2csc(SCC(=O)c3c(N)n(C4CC4)c(=O)[nH]c3=O)n2)cc1,inactive
13,COc1cccc2c1Oc1ncccc1N(C(=O)CCC(=O)NCc1ccccc1F)C2,"inconclusive: 11.2 µM [inhibitor, partial curve, poor fit]"
14,COC(=O)c1ccc(NC(=O)c2cccc(NC(=O)c3ccco3)c2)cc1,"inconclusive: 7.94 µM [inhibitor, partial curve, poor fit]"
15,C=CCNC(=O)c1onc(CSc2ccc(F)c(F)c2)c1C(=O)O,inactive
16,O=C(c1ccc(Cl)cc1)N1CCN(C(=O)C2CCCCC2)CC1,"inconclusive: 0.316 µM [inhibitor, full curve, poor fit]"
17,CC1S/C(=N/N=C/c2ccco2)N(Cc2ccccc2)C1=O (stereo not given),"inconclusive: 0.316 µM [inhibitor, full curve, poor fit]"
18,CC(C)NC(=O)c1onc(CSc2cccc3ccccc23)c1C(=O)O,inactive
19,COc1ccc(OC)c(NC(=O)c2nc(S(=O)(=O)Cc3ccccc3)ncc2Cl)c1,inactive
20,O=C(CCl)Nc1cccc2ncccc12,active: 3.55 µM
21,CC(=O)OC[C@H]1O[C@@H](n2ncc(=O)[nH]c2=O)[C@H](OC(C)=O)[C@@H]1OC(C)=O,inactive
22,CCn1c(SCC(=O)N2CCCC2)nc2c(c1=O)SCC2,"inconclusive: 5.01 µM [inhibitor, partial curve, poor fit]"
23,CCOC(=O)Nc1ccc(C(=O)/C=C/c2ccccc2)cc1,"inconclusive: 1.12 µM [inhibitor, full curve, poor fit]"
24,C=CCNC(=O)c1onc(CSc2cccc(C)c2)c1C(=O)O,inactive
25,O=C(COc1ccc(Cl)cc1)NCc1nnc2c3ccccc3c(-c3ccccc3)nn12,active: 12.6 µM

row,Compound,Potency
1,CC1Cc2ccccc2N1CC(=O)NC(=O)NCc1ccco1 (stereo not given),"inconclusive: 17.8 µM [inhibitor, partial curve, poor fit]"
2,Cc1ccccc1NC(=O)Cc1nnc(SCC(=O)NC2CCCCC2)n1C,inactive
3,COC(=O)c1ccccc1SC1CC(=O)N(c2ccccc2)C1=O (stereo not given),inactive
4,CCN(CC)c1ccc(/C=C2\SC(=O)N(C(C)C)C2=O)o1,"inconclusive: 15.8 µM [inhibitor, single point]"
5,O=C(NC1CCN(Cc2ccccc2)CC1)C1CCN(c2nnc(-n3cccc3)s2)CC1,active: 5.01 µM
6,O=C(O)c1ccccc1NC(=O)c1ccccc1Nc1ccccc1,"inconclusive: 12.6 µM [inhibitor, partial curve, poor fit]"
7,Nc1nnnn1/N=C/C(Br)=C/c1ccccc1,active: 12.6 µM
8,O=C(CSc1c2c(nc3ccccc13)CCCC2)NCc1ccco1,inactive
9,CC(=O)/C=C/c1ccc2ccccc2n1,"inconclusive: 0.355 µM [inhibitor, full curve, poor fit]"
10,O=C1N/C(=C/c2ccc(N3CCOCC3)o2)C(=O)N1c1ccccc1,"inconclusive: 15.8 µM [inhibitor, partial curve]"
11,O=C(O)c1nn(CCOc2ccc(Cl)cc2Cl)c(=O)c2ccccc12,"inconclusive: 15.8 µM [inhibitor, single point]"
12,COc1ccc2[nH]cc(CCCN3C(=O)c4ccccc4C3=O)c2c1,inactive
13,Cc1ccc(C)c(-c2csc(N/N=C/c3ccco3)n2)c1,"inconclusive: 15.8 µM [inhibitor, single point]"
14,O=C(Nc1ccccc1)N1CCC(O)(c2cccc(C(F)(F)F)c2)CC1,active: 12.6 µM
15,Cc1cc(C(=O)Nc2c(C)nn(Cc3c(Cl)cccc3Cl)c2C)no1,"inconclusive: 7.94 µM [inhibitor, partial curve]"
16,CCOC(=O)C1CCN(c2c(NCc3ccc(C(=O)NCCC(C)C)cc3)c(=O)c2=O)CC1,active: 1.12 µM
17,O=C1CN(C(=O)c2ccc(Cl)c(S(=O)(=O)N3CCc4ccccc43)c2)c2ccccc2N1,active: 12.6 µM
18,Cc1cccc(C2Nc3ccccc3C(=O)N2c2ccccc2)n1 (stereo not given),inactive
19,O=C(CNC(=O)c1ccco1)OCC(=O)c1ccccc1,inactive
20,CN(c1ccccc1)S(=O)(=O)c1ccc(NC(=O)c2nc(S(C)(=O)=O)ncc2Cl)cc1,inactive
21,COc1ccc(S(=O)(=O)NCc2ccco2)cc1-c1nnc2c3ccccc3c(C)nn12,"inconclusive: 10 µM [inhibitor, partial curve, poor fit]"
22,Cc1cccc(N2CCN(C(=O)C3CCN(c4ncnc5c4nc4n5CCCCC4)CC3)CC2)c1C,active: 11.2 µM
23,O=C(CCN1C(=O)/C(=C\c2ccc(F)cc2)SC1=S)Nc1ccccc1,inactive
24,O=C(C1CCCCC1)N1CCN=C1SCc1cccc([N+](=O)[O-])c1,"inconclusive: 4.47 µM [activator, partial curve, poor fit]"
25,O=C1NC(NS(=O)(=O)c2ccc(Cl)cc2)(C(F)(F)F)C(=O)N1Cc1cccnc1 (stereo not given),"inconclusive: 0.398 µM [inhibitor, full curve, poor fit]"
